Test results from PMC8935817.
No constants are given. Whether binding was seen depends on the method and setting. For some assays here: Binding seen in cells or lysates may run through a third protein. Some binding calls cover weakened binding; strength is not graded here. Sequences can lack the tags named with a protein.

The chains behind the UniProt entries cited, without tags or fusion partners. Residues count along the entry.
UniProt Q03265, residues 44-553: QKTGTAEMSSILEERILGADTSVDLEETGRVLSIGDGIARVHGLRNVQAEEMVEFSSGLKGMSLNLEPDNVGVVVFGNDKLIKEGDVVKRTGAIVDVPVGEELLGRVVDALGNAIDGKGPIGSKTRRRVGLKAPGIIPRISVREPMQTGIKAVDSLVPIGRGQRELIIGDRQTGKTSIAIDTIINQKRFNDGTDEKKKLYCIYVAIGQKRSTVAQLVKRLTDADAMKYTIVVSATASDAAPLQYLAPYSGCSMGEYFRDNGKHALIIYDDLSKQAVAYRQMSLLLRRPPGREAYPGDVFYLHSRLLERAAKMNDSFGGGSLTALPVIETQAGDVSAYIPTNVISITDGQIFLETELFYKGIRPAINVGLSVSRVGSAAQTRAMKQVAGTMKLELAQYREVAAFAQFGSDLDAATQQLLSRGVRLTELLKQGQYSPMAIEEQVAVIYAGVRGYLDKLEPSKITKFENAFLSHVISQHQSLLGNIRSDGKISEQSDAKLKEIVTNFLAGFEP
UniProt P0CE47: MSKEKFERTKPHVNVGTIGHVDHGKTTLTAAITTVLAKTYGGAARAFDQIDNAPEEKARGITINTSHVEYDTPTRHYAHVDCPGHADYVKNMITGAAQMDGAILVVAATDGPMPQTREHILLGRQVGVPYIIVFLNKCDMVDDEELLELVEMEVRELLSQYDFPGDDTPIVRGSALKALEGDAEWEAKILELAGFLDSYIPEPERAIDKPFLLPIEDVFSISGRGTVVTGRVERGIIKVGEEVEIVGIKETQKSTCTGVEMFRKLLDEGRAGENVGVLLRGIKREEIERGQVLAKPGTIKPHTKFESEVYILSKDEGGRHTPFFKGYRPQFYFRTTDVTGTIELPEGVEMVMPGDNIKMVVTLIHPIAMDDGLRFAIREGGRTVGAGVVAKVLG

What was measured:
[1] = molecular target: T1, GATD3A:FLAG (glutamine amidotransferase-like class 1 domain-containing protein 3A, mouse, FLAG knock-in) (mouse) (UniProt Q9D172); assay: co-IP; FLAG immunoprecipitation from Gatd3a^FLAG/FLAG mouse heart mitochondria, EFTu and ATP5A found in the eluate (Fig. 4B)
T1 sequence: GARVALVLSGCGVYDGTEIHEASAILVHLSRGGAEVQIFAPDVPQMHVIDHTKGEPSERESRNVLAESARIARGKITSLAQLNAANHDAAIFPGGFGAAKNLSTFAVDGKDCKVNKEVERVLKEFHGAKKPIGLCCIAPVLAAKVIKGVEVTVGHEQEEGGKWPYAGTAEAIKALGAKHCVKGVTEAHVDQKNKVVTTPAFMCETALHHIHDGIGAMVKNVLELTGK

[2] = molecular target: T2, recombinant human GATD3A:6X-His (mitochondrial localization signal removed) (human) (UniProt P0DPI2); assay: co-elution in His-tag affinity chromatography (FPLC); lysate of E. coli BL21 DE3 expressing GATD3A:6X-His on a HisTrap HP column, wash 10 mM imidazole, elution over a 10-100 mM imidazole gradient; Coomassie gel, band identified by mass spectrometry
T2 sequence: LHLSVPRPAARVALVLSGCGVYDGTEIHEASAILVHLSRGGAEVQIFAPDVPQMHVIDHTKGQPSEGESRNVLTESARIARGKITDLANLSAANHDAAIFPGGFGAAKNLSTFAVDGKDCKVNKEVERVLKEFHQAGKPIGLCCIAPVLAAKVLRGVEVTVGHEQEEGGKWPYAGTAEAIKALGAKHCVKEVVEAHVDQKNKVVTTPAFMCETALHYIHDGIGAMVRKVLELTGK

Substance | binding [1] | binding [2]
ATP synthase subunit alpha, mitochondrial (from UniProt Q03265 44-553) | binds | –
bacterial elongation factor EFTu (E. coli) (from UniProt P0CE47 1-394) | – | binds
